Assay results from PMC7819943, “Rice protein-binding microarrays: a tool to detect cis-acting elements near promoter regions in rice”.
Some of the results follow.

These sequences were tested against T1, OsSMF1 (Oryza sativa, UniProt Q6ZLB0 1-436) (assay: protein-binding microarray (RPBM); PBS, 2% BSA, 51.3 ng/ul salmon testes DNA, 50 uM zinc acetate, 200 nM TF, 25 C, 1 h; high values mean tight binding). Conditions: protein: recombinant; tags: N-terminal polyhistidine and DsRed monomer fusion (pET32a); chain copies: 2; label: CyDye5-dUTP incorporated in the synthesized complementary strand; 3' TTTTT single-stranded linker to array surface; dsDNA, one strand shown.
T1 sequence: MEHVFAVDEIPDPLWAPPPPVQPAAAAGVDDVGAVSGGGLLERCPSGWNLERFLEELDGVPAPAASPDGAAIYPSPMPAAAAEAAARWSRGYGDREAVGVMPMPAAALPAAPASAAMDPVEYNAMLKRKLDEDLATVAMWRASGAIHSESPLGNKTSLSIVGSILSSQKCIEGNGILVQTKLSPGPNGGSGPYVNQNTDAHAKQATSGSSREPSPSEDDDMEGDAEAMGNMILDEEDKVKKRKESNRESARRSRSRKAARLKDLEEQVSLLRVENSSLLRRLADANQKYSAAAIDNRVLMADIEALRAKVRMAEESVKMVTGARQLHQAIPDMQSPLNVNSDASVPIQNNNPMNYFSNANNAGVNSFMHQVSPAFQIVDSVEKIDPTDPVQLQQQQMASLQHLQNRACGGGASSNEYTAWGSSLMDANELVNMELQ
Summary of the method: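 Per-feature fluorescence intensity (arbitrary units), read on an Axon 4000B scanner, is the binding signal. Transcription factors carrying an N-terminal polyhistidine tag and DsRed fusion were expressed in E. coli BL21-CodonPlus and purified on Ni–NTA. A custom Agilent array, made double-stranded by primer extension with Cy5-dUTP and blocked with 2% BSA, was incubated with 200 nM protein in PBS, 2% BSA, salmon testes DNA and 50 µM zinc acetate at 25 °C for 1 h and then washed.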

Row | Sequence | binding signal
1 | GCCTCAGCGTGCGTGCGCCCTAGCCAGTCGATCTCCCCGTCGGAGTCACCTAGTGCAG | 6160 fluorescence intensity (a.u.)
2 | ATTAATATCTAGTCCCACCTGTCATAGACACACCGCGTCTCGGAGTCACCTAGTGCAG | 4200 fluorescence intensity (a.u.)
3 | GACAGTAGCAGCAGTGGACACGTCGATTTCGCAATTCGTGCGGAGTCACCTAGTGCAG | 5760 fluorescence intensity (a.u.)
4 | CGCACACATGAGCTCATGATGTGAACGTGATGATGGTGCGCGGAGTCACCTAGTGCAG | 48500 fluorescence intensity (a.u.)
5 | GTACTCCACAACAACTAAGCAGAAAGCGTACACATGAAAGCGGAGTCACCTAGTGCAG | 9390 fluorescence intensity (a.u.)
6 | AGAGGAAGAAATGACTCATCTGAATCTGAGAGTCGTGTCACGGAGTCACCTAGTGCAG | 4960 fluorescence intensity (a.u.)
7 | GGCCGTGACCAAGCGCTGCATCTTGCACACCTTCCGGTCCCGGAGTCACCTAGTGCAG | 3650 fluorescence intensity (a.u.)
8 | AATGCGTGACTCTCCATTCTTTCACACAAGATTGGCTACACGGAGTCACCTAGTGCAG | 3440 fluorescence intensity (a.u.)
9 | CTCGCTGACGTAAACAGGTGACAGCCCGTGCAAGTGCAACCGGAGTCACCTAGTGCAG | 6000 fluorescence intensity (a.u.)
10 | AAAAGCCCACCACCACCCAACCCGCCCAACGCCACGTCACCGGAGTCACCTAGTGCAG | 24800 fluorescence intensity (a.u.)
11 | GGATGCACGTCTTGAGTTTCGAGCTGACTTTGACTCAACGCGGAGTCACCTAGTGCAG | 4620 fluorescence intensity (a.u.)
12 | GTTTTCTCTTATGACTGTGGATTACGACGTGCACGTTTTCCGGAGTCACCTAGTGCAG | 4490 fluorescence intensity (a.u.)
13 | ATCTACACATGCACAAATGTTGCAGCTGATATATGGCTTACGGAGTCACCTAGTGCAG | 4070 fluorescence intensity (a.u.)
14 | AATAAAGATAAACCCACCAACGTGGAGGAGGCGTAGGCAGCGGAGTCACCTAGTGCAG | 5860 fluorescence intensity (a.u.)
15 | GAGCTTAAGGTAGGGAGACCTGAGCTGAGAAGAGAAAGTCCGGAGTCACCTAGTGCAG | 3280 fluorescence intensity (a.u.)
16 | ACGGATTATCCGCCAAACATTACATCGGATAATCCGATTACGGAGTCACCTAGTGCAG | 15500 fluorescence intensity (a.u.)
17 | CACACCTGAACGCCGGATAAAAGTGAACCCTGTTTTGTGCCGGAGTCACCTAGTGCAG | 3460 fluorescence intensity (a.u.)
18 | CCCTCCACCTTGCAACCTCACGCACTGATCCTACTCGGATCGGAGTCACCTAGTGCAG | 3190 fluorescence intensity (a.u.)
19 | CAAATATATTATCAAAATATATTCAATGCTAAATTTAATGCGGAGTCACCTAGTGCAG | 5300 fluorescence intensity (a.u.)
20 | ACTACAGCCAAGTGCGTGACGAGGCGTTCGTCACCGTGTGCGGAGTCACCTAGTGCAG | 4720 fluorescence intensity (a.u.)
21 | AGATTTGGAGTATAAATAAACAGAGAGCGATGGAGCCGGTCGGAGTCACCTAGTGCAG | 3340 fluorescence intensity (a.u.)

In another format: entries from further up
Row,Sequence,binding signal
14,AATAAAGATAAACCCACCAACGTGGAGGAGGCGTAGGCAGCGGAGTCACCTAGTGCAG,5860 fluorescence intensity (a.u.)
15,GAGCTTAAGGTAGGGAGACCTGAGCTGAGAAGAGAAAGTCCGGAGTCACCTAGTGCAG,3280 fluorescence intensity (a.u.)

(list continues)

Row | Sequence | binding signal
22 | TCATGACACTTCGCGGTGGGTTGCGCCTCCACGCACGCACCGGAGTCACCTAGTGCAG | 24600 fluorescence intensity (a.u.)
23 | TCCTCCCTCCCTCCCGCCGCGTCCCGCCACTCCCGGCTGACGGAGTCACCTAGTGCAG | 3190 fluorescence intensity (a.u.)
24 | ACGACAGTAGAGCTTAGACCAGCAAACCAATCATGCATCACGGAGTCACCTAGTGCAG | 30600 fluorescence intensity (a.u.)
25 | CCCAGTTCCATTCCGAGTTTATGTGTTCGTCACCATCACCCGGAGTCACCTAGTGCAG | 3540 fluorescence intensity (a.u.)
26 | CTTGTTCAGAATGATGCCACTTTAAATCATATCACTTTTGCGGAGTCACCTAGTGCAG | 3780 fluorescence intensity (a.u.)
27 | GGATGGCGTCTCCTGCGACGCCATCACCGGCCGCGTCACCCGGAGTCACCTAGTGCAG | 17400 fluorescence intensity (a.u.)
28 | ACACTTGCTTTCAACACGTTAGTTCTTCGTCAACGGAGCTCGGAGTCACCTAGTGCAG | 3820 fluorescence intensity (a.u.)
29 | AAAACCAATTACACAGTTTGCGTGTAAATTGCGAGACGAACGGAGTCACCTAGTGCAG | 3580 fluorescence intensity (a.u.)
30 | CTCCCTTCTCCACGCACGCACATCATCATTATTGGGAGGCCGGAGTCACCTAGTGCAG | 5520 fluorescence intensity (a.u.)
31 | CCCTAGCCGCCAAACCTTGCACGAAGGGAGAAGGCACGCCCGGAGTCACCTAGTGCAG | 24800 fluorescence intensity (a.u.)
32 | CCCACATCCGGGCCCACCTGACAGTGACCCAACACCCAATCGGAGTCACCTAGTGCAG | 3690 fluorescence intensity (a.u.)
33 | GGGCGGCTATGGCGACGACGACGACGACCGCATCTCTCTCCGGAGTCACCTAGTGCAG | 3290 fluorescence intensity (a.u.)
34 | GCCCCACCCATACCCAAGCTTCCCGCTAATGTAGGCTCGACGGAGTCACCTAGTGCAG | 37800 fluorescence intensity (a.u.)
35 | TTCAGCCATCTTCTTCATCTGCGACAACTCCCCATCACTGCGGAGTCACCTAGTGCAG | 3450 fluorescence intensity (a.u.)
36 | GCCAGCCGGCATGTCGTCGTTGTCATCCACTTGCCAGCAACGGAGTCACCTAGTGCAG | 4640 fluorescence intensity (a.u.)
37 | TACGCGGGAACTTCTGGCCCTGCATTGGTTCTAATTCATGCGGAGTCACCTAGTGCAG | 7110 fluorescence intensity (a.u.)
38 | TACTAGGATTGACCAAGCTTCGGTATCTCAAGCTCAATAACGGAGTCACCTAGTGCAG | 34000 fluorescence intensity (a.u.)
39 | TGTAGTGCGCGCTGTACTGTTCCCACGTCGCGTCGAGGCACGGAGTCACCTAGTGCAG | 3300 fluorescence intensity (a.u.)
40 | TTACGCAGAGAAACTAATCCACATCAACACACCATCACTCCGGAGTCACCTAGTGCAG | 3970 fluorescence intensity (a.u.)
41 | CGGTGCCATTGGCTGGCCCATCATCGTACCAGCCAGTCCACGGAGTCACCTAGTGCAG | 3170 fluorescence intensity (a.u.)
42 | TCATTTAAAATATGCTGCCACGTATAAAATCGAACTAAAGCGGAGTCACCTAGTGCAG | 8250 fluorescence intensity (a.u.)
